Test results from PubChem BioAssay AID206 (DTP/NCI, 2004).
The list is a part of this screen's results and no random one: it gathers tests that were run many times, whatever their T/C, doses with no T/C, and many T/C values between a quarter and a half above the control. Other doses and runs of a compound stand elsewhere. T/C gives the treated animals as a percentage of the vehicle group. Schedules are NCI's codes, read here as Q, the interval in days (D) or hours (H), X, the number of doses. Some T/C values carry the count of animals alive at the toxicity check (mostly the fifth day); without a count, all were alive then. Some entries give survivors of the animals treated and no T/C: the source holds a T/C of zero for them, seemingly a mark for toxic or unscored doses. Counts of survivors are from the toxicity check (mostly the fifth day) where no day follows; animals may have died later. Some entries were tested several times; the results are listed from low to high.

Tested on: nude mice, HT29 intrarenal xenograft, tumor weight T/C
Test: NCI In Vivo Anticancer Drug Screen. Data for tumor model HT29;CX-1 Human Adenocarcinoma (MER+) (intrarenal inoculation) in NU/NU Swiss (nude) mice
Settings: T/C endpoint: mean tumor weight change, higher T/C = larger tumour
Summary of the method: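 T/C = treated-group value ÷ vehicle-group value, using tumor size or survival.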

[1] = dose: 2400.0 mg/kg/injection, schedule: Q04DX004 (sc), vehicle: saline with Tween-80
[2] = dose: 1200.0 mg/kg/injection, schedule: Q04DX004 (sc), vehicle: saline with Tween-80
[3] = dose: 600.0 mg/kg/injection, schedule: Q04DX004 (sc), vehicle: Klucel (hydroxypropylcellulose) (HPC)

Question: For `CNC(=O)c1cccc2c(Nc3ccc(NS(C)(=O)=O)cc3OC)c3cccc(C)c3nc12`, which survivor count (dose: 200.0 mg/kg/injection, schedule: Q04DX004 (sc), vehicle: other) is on record?
Answer: Its survivor count is 1 of 3 on day 15.

Question: `CN(C)C=O` was tested. Which T/C (dose: 400.0 mg/kg/injection, schedule: Q01DX010 (sc), vehicle: saline, evaluated on day 11) did it give?
Answer: Its T/C is 129 % of control.

Question: How did the survivor count (dose: 100.0 mg/kg/injection, schedule: Q04DX004 (sc), vehicle: suspension in saline) turn out when `Cc1c2cc[n+](CCN3CCCCC3)cc2c(C)c2c1[nH]c1ccc(O)cc12` was run?
Answer: Its survivor count is 0 of 6 on day 15.

Question: For `O=C(O)CSc1nc(-c2ccccc2)c(-c2ccccc2)n1-c1ccccn1`, which survivor count (dose: 500.0 mg/kg/injection, schedule: Q04DX004 (sc), vehicle: water) is on record?
Answer: Its survivor count is 0 of 5 on day 15.

Question: And the survivor count (dose: 1000.0 mg/kg/injection, schedule: Q04DX004 (sc), vehicle: water)?
Answer: Its survivor count is 0 of 5 on day 15.

Question: Which survivor count (dose: 160.0 mg/kg/injection, schedule: Q04DX004 (sc), vehicle: saline + alcohol) does the source give for `C=C(C)C(=O)OC1C/C(CO)=C\C(O)C/C(C)=C/C2OC(=O)C(=C)C21` (centres undefined) here?
Answer: Its survivor count is 1 of 6 on day 15.

Question: What does the source list for `Nc1ncnc2c(C3OC(CO)C(O)C3O)[nH]nc12` (centres undefined)?
Answer: survivor count (dose: 150.0 mg/kg/injection, schedule: Q04DX004 (sc), vehicle: suspension in saline): 3 of 6 on day 15; survivor count (dose: 300.0 mg/kg/injection, schedule: Q04DX004 (sc), vehicle: suspension in saline): 0 of 6 on day 15; survivor count (dose: 600.0 mg/kg/injection, schedule: Q04DX004 (sc), vehicle: suspension in saline): 0 of 6 on day 15

Question: Which results are given for `O=NN(CCCl)C(=O)NCCCl`?
Answer: T/C (dose: 4.0 mg/kg/injection, schedule: Q01DX010 (sc), vehicle: saline, evaluated on day 11): 140 % of control; survivor count (dose: 32.0 mg/kg/injection, schedule: Q01DX010 (sc), vehicle: saline): 0 of 3 on day 11; survivor count (dose: 120.0 mg/kg/injection, schedule: Q04DX004 (sc), vehicle: suspension in saline): 2 of 4 on day 15

Question: Which results are given for `COC(=O)[C@@]12OC[C@]34[C@H]([C@@H](O)[C@@H]1O)[C@@]1(C)CC(=O)C(O)=C(C)[C@@H]1C[C@H]3OC(=O)[C@H](OC(=O)/C=C(\C)C(C)C)[C@@H]24`?
Answer: survivor count (dose: 2.0 mg/kg/injection, schedule: Q04DX004 (sc), vehicle: saline with Tween-80): 0 of 6 on day 15; survivor count (dose: 4.0 mg/kg/injection, schedule: Q04DX004 (sc), vehicle: saline with Tween-80): 0 of 6 on day 15

Question: For `CSc1ccc2c(c1)C(N1CCN(C)CC1)Cc1ccccc1S2` (centres undefined), which T/C (dose: 100.0 mg/kg/injection, schedule: Q04DX004 (sc), vehicle: saline with Tween-80, evaluated on day 15) is on record?
Answer: The T/C was 135 % of control [5 of 6 alive on day 15].

Question: Which T/C (dose: 225.0 mg/kg/injection, schedule: Q04DX004 (sc), vehicle: saline with Tween-80, evaluated on day 15) does the source give for `S=c1[nH]cc2cnccn12` here?
Answer: The T/C was 135 % of control.

Question: How did the survivor count (dose: 600.0 mg/kg/injection, schedule: Q04DX004 (sc), vehicle: saline) turn out when `COC1C(OC(=O)/C=C/C=C/C=C/C=C/C(=O)O)CCC2(CO2)C1C1(C)OC1CC=C(C)C` (centres undefined) was run?
Answer: The survivor count was 2 of 6 on day 15.

Question: Which results are given for `CC(=O)C1(O)Cc2c(O)c3c(c(O)c2C(OC2CC(N)C(O)C(C)O2)C1)C(=O)c1ccccc1C3=O` (centres undefined)?
Answer: survivor count (dose: 2.0 mg/kg/injection, schedule: Q04DX004 (sc), vehicle: water): 2 of 5 on day 15; survivor count (dose: 4.0 mg/kg/injection, schedule: Q04DX004 (sc), vehicle: water): 0 of 6 on day 15; survivor count (dose: 8.0 mg/kg/injection, schedule: Q04DX004 (sc), vehicle: water): 0 of 6 on day 15

Question: Which survivor count [1] does the source give for `O=C(Nc1nncs1)c1cccs1` here?
Answer: The survivor count was 1 of 5 on day 15.

Question: How did the survivor count [2] turn out when `CC(=O)N(C)O` was run?
Answer: The survivor count was 0 of 6 on day 15.

Question: With `O=C(O)CC(NC(=O)CP(=O)(O)O)C(=O)O.[NH-]C1CCCCC1[NH-].[Pt+2]` (centres undefined) as the molecule, how does the survivor count (dose: 50.0 mg/kg/injection, schedule: Q04DX004 (sc), vehicle: dextrose) read?
Answer: The survivor count was 3 of 6 on day 15.

Question: `Cc1ccc(N)c(N)c1` was tested. Which survivor count (dose: 1600.0 mg/kg/injection, schedule: Q04DX004 (sc), vehicle: saline with Tween-80) did it give?
Answer: Its survivor count is 0 of 6 on day 15.

Question: What does the source list for `CNC(=O)n1c(N)nc(-c2ccccc2)c1-c1ccccc1`?
Answer: survivor count [2]: 3 of 6 on day 15; survivor count [1]: 3 of 6 on day 15

Question: How did the survivor count (dose: 25.0 mg/kg/injection, schedule: Q04DX004 (sc), vehicle: saline with Tween-80) turn out when `Cc1c(CNc2ccc(C(=O)NC(CC(=O)O)C(=O)O)cc2)ccc2nc(N)nc(N)c12` (centres undefined) was run?
Answer: Its survivor count is 2 of 6 on day 15.

Question: And the survivor count (dose: 50.0 mg/kg/injection, schedule: Q04DX004 (sc), vehicle: saline with Tween-80)?
Answer: Its survivor count is 0 of 6 on day 15.

Question: And the survivor count (dose: 100.0 mg/kg/injection, schedule: Q04DX004 (sc), vehicle: saline with Tween-80)?
Answer: The survivor count was 0 of 6 on day 15.

Question: Which survivor count (dose: 200.0 mg/kg/injection, schedule: Q01DX010 (sc), vehicle: saline with Tween-80) does the source give for `S=C=NCCc1ccccc1` here?
Answer: Its survivor count is 0 of 6 on day 15.

Question: And the survivor count (dose: 400.0 mg/kg/injection, schedule: Q01DX010 (sc), vehicle: saline with Tween-80)?
Answer: The survivor count was 0 of 6 on day 15 and 2 of 6 on day 15.

Question: Which survivor count (dose: 200.0 mg/kg/injection, schedule: Q01DX010 (sc), vehicle: suspension in saline) does the source give for `Oc1ccccc1C=NCCC[N-]CCCN=Cc1ccccc1O.[Co]` here?
Answer: Its survivor count is 0 of 3 on day 20.

Question: `CC1=C(C)C(=O)O[C@@H]([C@](C)(O)[C@]2(O)CC[C@@]3(O)[C@@H]4C[C@H]5O[C@]56[C@@H](O)C=CC(=O)[C@]6(C)[C@H]4CC[C@]23C)C1` was tested. Which survivor count (dose: 64.0 mg/kg/injection, schedule: Q01DX010 (sc), vehicle: saline) did it give?
Answer: Its survivor count is 0 of 3 on day 11.

Question: And the survivor count (dose: 128.0 mg/kg/injection, schedule: Q01DX010 (sc), vehicle: saline)?
Answer: The survivor count was 1 of 6 on day 11.

Question: How did the T/C (dose: 1200.0 mg/kg/injection, schedule: Q04DX004 (sc), vehicle: saline with Tween-80, evaluated on day 15) turn out when `CCCCCC1c2cc(O)ccc2OC1N1CCOCC1` (centres undefined) was run?
Answer: Its T/C is 143 % of control.

Question: And the survivor count [1]?
Answer: Its survivor count is 3 of 6 on day 15.

Question: `COC1=C(NC(C)=O)C(=O)c2nc(-c3nc(C(=O)O)c(C)c(-c4ccc(OC)c(OC)c4O)c3N)ccc2C1=O` was tested. Which survivor count (dose: 400.0 mg/kg/injection, schedule: Q04DX004 (sc), vehicle: Klucel (hydroxypropylcellulose) (HPC)) did it give?
Answer: Its survivor count is 1 of 6 on day 15, 2 of 6 on day 15, 3 of 6 on day 15.

Question: For `Nc1nc(F)nc2c1ncn2C1OC(COP(=O)(O)O)C(O)C1O` (centres undefined), which survivor count (dose: 400.0 mg/kg/injection, schedule: Q01DX010 (sc), vehicle: saline) is on record?
Answer: Its survivor count is 0 of 3 on day 11.

Question: With `O=C1C=C(C2OC(CO)C(O)C2O)C(=O)N1` (centres undefined) as the molecule, how does the survivor count (dose: 25.0 mg/kg/injection, schedule: Q01DX010 (sc), vehicle: saline) read?
Answer: The survivor count was 1 of 3 on day 11.

Question: And the survivor count (dose: 50.0 mg/kg/injection, schedule: Q01DX010 (sc), vehicle: saline)?
Answer: Its survivor count is 0 of 3 on day 11.

Question: With `CC(=S)NC(O)C(=O)c1ccccc1` (centres undefined) as the molecule, how does the survivor count (dose: 600.0 mg/kg/injection, schedule: Q04DX004 (sc), vehicle: saline with Tween-80) read?
Answer: The survivor count was 3 of 6 on day 15.

Question: And the survivor count [2]?
Answer: The survivor count was 2 of 6 on day 15.

Question: What about the survivor count [1] of the same molecule?
Answer: The survivor count was 0 of 6 on day 15.

Question: Which T/C (dose: 150.0 mg/kg/injection, schedule: Q04DX004 (sc), vehicle: saline with Tween-80, evaluated on day 15) does the source give for `Cc1ccc(NC(=O)Oc2ccc(Br)cc2Br)c([N+](=O)[O-])c1` here?
Answer: The T/C was 132 % of control [5 of 6 alive on day 15].

Question: What does the source list for `O=C1NC2(CCCCC2)C(=O)N1CCN(CCCl)CCCl`?
Answer: survivor count (dose: 48.0 mg/kg/injection, schedule: Q01DX010 (sc), vehicle: saline): 0 of 3 on day 11; survivor count (dose: 96.0 mg/kg/injection, schedule: Q01DX010 (sc), vehicle: saline): 0 of 3 on day 11

Question: With `O=C(Nc1ccc(C2=NCCN2)cc1)c1ccc(C(=O)Nc2ccc(C3=NCCN3)cc2)c(Cl)c1` as the molecule, how does the survivor count (dose: 100.0 mg/kg/injection, schedule: Q01DX010 (sc), vehicle: water) read?
Answer: The survivor count was 0 of 3 on day 11.

Question: How did the survivor count [3] turn out when `Cc1cc(N2C(=O)CCSC2=S)ccc1Cl` was run?
Answer: The survivor count was 1 of 6 on day 15.

Question: Which survivor count [3] does the source give for `C[C@]12C=CC(=O)C=C1CC[C@@H]1[C@@H]2C(=O)C[C@@]2(C)[C@H]1CC[C@]2(O)C(=O)CO` here?
Answer: The survivor count was 1 of 6 on day 15 and 1 of 5 on day 15.

Question: What about the survivor count (dose: 1200.0 mg/kg/injection, schedule: Q04DX004 (sc), vehicle: Klucel (hydroxypropylcellulose) (HPC)) of the same molecule?
Answer: The survivor count was 0 of 6 on day 15.

Question: What about the survivor count (dose: 2400.0 mg/kg/injection, schedule: Q04DX004 (sc), vehicle: Klucel (hydroxypropylcellulose) (HPC)) of the same molecule?
Answer: Its survivor count is 0 of 6 on day 15 and 1 of 6 on day 15.

Question: `O=C[C@@H](CO)O[C@H](C=O)n1cnc2c(=O)[nH]cnc21` was tested. Which survivor count (dose: 1800.0 mg/kg/injection, schedule: Q04DX004 (sc), vehicle: saline) did it give?
Answer: The survivor count was 0 of 6 on day 15.

Question: `COc1ccc2c(c1)CCC(c1ccccc1)=C2c1ccc(OCCN2CCCC2)cc1` was tested. Which T/C (dose: 100.0 mg/kg/injection, schedule: Q04DX004 (sc), vehicle: Klucel (hydroxypropylcellulose) (HPC), evaluated on day 15) did it give?
Answer: The T/C was 127 % of control.

Question: Which T/C (dose: 300.0 mg/kg/injection, schedule: Q04DX004 (sc), vehicle: Klucel (hydroxypropylcellulose) (HPC), evaluated on day 15) does the source give for `O=c1oc2c(O)c(O)cc3c(=O)oc4c(O)c(O)cc1c4c23` here?
Answer: The T/C was 126 % of control.
